The text below walks through data of PMC7588057.

Results are given in words; binding and its absence hold for the method and conditions named. In cells and extracts the contact can be indirect. Some results given as binding are weak or reduced against the parent protein; the word gives no strength. Tags and fused reporters may be left off the sequences shown.

The target of the assay is GFP-TRIM5 (tripartite motif-containing protein 5, isoform α), wild type, Q0PF16. Description: co-IP; lysates of transiently transfected HEK293T cells, IP lysis buffer with 1% NP-40; immunoprecipitation with anti-GFP (for the TRIM5-TAK1 pair also with anti-FLAG), immunoblot; TRIM5-TAK1 also in ULK1, BECN1 and ATG7 knockout HEK293T cells. To be noted: remark: other sources report otherwise.

B1: FLAG-TAK1 (TGFβ-activated kinase 1; MAP3K7), O43318 1-606 (enzyme)
chain: MSTASAASSSSSSSAGEMIEAPSQVLNFEEIDYKEIEVEEVVGRGAFGVVCKAKWRAKDVAIKQIESESERKAFIVELRQLSRVNHPNIVKLYGACLNPVCLVMEYAEGGSLYNVLHGAEPLPYYTAAHAMSWCLQCSQGVAYLHSMQPKALIHRDLKPPNLLLVAGGTVLKICDFGTACDIQTHMTNNKGSAAWMAPEVFEGSNYSEKCDVFSWGIILWEVITRRKPFDEIGGPAFRIMWAVHNGTRPPLIKNLPKPIESLMTRCWSKDPSQRPSMEEIVKIMTHLMRYFPGADEPLQYPCQYSDEGQSNSATSTGSFMDIASTNTSNKSDTNMEQVPATNDTIKRLESKLLKNQAKQQSESGRLSLGASRGSSVESLPPTSEGKRMSADMSEIEARIAATTAYSKPKRGHRKTASFGNILDVPEIVISGNGQPRRRSIQDLTVTGTEPGQVSSRSSSPSVRMITTSGPTSEKPTRSHPWTPDDSTDTNGSDNSIPMAYLTLDHQLQPLAPCPNSKESMAVFEQHCKMAQEYMKVQTEIALLLQRKQELVAELDQDEKDQQNTSRLVQEHKKLLDENKSLSTYYQQCKKQLEVIRSQQQKRQGTS
For the molecule B1, the binding result is “binds”.
